Experimental data from patent publication US20230312741A1.
Residue numbers refer to the chain shown, from its start. These are yes or no findings as the source states them, for the method shown. Some results given as binding are weak or reduced against the parent protein; the word gives no strength.

B1: scfv fragment of ADI-37503 (scFv, V domains shown)
VH: EVQLLESGGGLVQPGGSLRLSCAASGFTFSNYAMSWVRQAPGKGLEWVSAISGRASSTYYADSVKGRFTISRDNSKNTLYLQMNSLRAEDTAVYYCARGGPYGSGSYWDTFDYWGQGTLVTVSS
VL: EIVMTQSPATLSVSPGERATLSCRASQSVSSNLAWYQQKPGQAPRLLIYGASTRATGIPARFSGSGSGTEFTLTISSLQSEDFAVYYCQQYTNHYTFGGGTKVEIK
B2: scfv fragment of ADI-37504 (scFv, V domains shown)
VH: B1 VH with S30H, R54T, A55G, S56R, S57A
VL: B1 VL
B3: scfv fragment of ADI-37506 (scFv, V domains shown)
VH: B1 VH with Y32L, S56T
VL: B1 VL
B4: scfv fragment of ADI-37505 (scFv, V domains shown)
VH: B1 VH with E1Q, L5V, S35T, A55G, S56T, S57A
VL: B1 VL
B5: scfv fragment of ADI-37507 (scFv, V domains shown)
VH: B1 VH with S30L, S35A, S56T
VL: B1 VL
B6: scfv fragment of ADI-37513 (scFv, V domains shown)
VH: EVQLLESGGGVVQPGRSLRLSCAASGFTFNFYGMHWVRQAPGKGLEWVAVINDEGINKYYADSVKGRFTISRDNSKNTLYLQMNSLRAEDTAVYYCARGGARYPIAFDIWGQGTMVTVSS
VL: DIQLTQSPSSVSASVGDRVTITCRASQDISSWLAWYQQKPGKAPKLLIYAASSLQSGVPSRFSGSGSGTDFTLTISSLQPEDFATYYCQQANDFPITFGGGTKVEIK
B7: scfv fragment of ADI-37522 (scFv, V domains shown)
VH: B6 VH with E1Q, L5V, N30S, F31H, N52S, I56S, G100W, A101L
VL: B6 VL
B8: scfv fragment of ADI-37542 (scFv, V domains shown)
VH: QVQLQESGPGLVKPSETLSLTCAVSGYSISEGYYWGWIRQPPGKGLEWIGSIYHTGFTYYNPSLKSRVTISVDTSKNQFSLKLSSVTAADTAVYYCARASIYTPPPEYFQHWGQGTLVTVSS
VL: DIQMTQSPSTLSASVGDRVTITCRASQSISSWLAWYQQKPGKAPKLLIYDASSLESGVPSRFSGSGSGTEFTLTISSLQPDDFATYYCQQSRIYSTFGGGTKVEIK
B9: scfv fragment of ADI-37543 (scFv, V domains shown)
VH: B8 VH with E31S, G36A, Y53F, T55S, Y59F
VL: B8 VL

target: cynomolgus monkey CD73 antigen (cynomolgus monkey); experiment: ForteBio BLI, scFv

binding, binds:
B1
B2
B3
B4
B5
B6
B7
B8
B9
